Test results from paper PMC10635573.
These are yes or no findings as the source states them, for the method shown. In cells and extracts the contact can be indirect. Some binding calls cover weakened binding; strength is not graded here. Where a sequence is shown, tags or fusion partners need not be part of it.

Sequences of proteins named here, by UniProt entry; tags and fusion partners are left off.
UniProt Q9W3M3: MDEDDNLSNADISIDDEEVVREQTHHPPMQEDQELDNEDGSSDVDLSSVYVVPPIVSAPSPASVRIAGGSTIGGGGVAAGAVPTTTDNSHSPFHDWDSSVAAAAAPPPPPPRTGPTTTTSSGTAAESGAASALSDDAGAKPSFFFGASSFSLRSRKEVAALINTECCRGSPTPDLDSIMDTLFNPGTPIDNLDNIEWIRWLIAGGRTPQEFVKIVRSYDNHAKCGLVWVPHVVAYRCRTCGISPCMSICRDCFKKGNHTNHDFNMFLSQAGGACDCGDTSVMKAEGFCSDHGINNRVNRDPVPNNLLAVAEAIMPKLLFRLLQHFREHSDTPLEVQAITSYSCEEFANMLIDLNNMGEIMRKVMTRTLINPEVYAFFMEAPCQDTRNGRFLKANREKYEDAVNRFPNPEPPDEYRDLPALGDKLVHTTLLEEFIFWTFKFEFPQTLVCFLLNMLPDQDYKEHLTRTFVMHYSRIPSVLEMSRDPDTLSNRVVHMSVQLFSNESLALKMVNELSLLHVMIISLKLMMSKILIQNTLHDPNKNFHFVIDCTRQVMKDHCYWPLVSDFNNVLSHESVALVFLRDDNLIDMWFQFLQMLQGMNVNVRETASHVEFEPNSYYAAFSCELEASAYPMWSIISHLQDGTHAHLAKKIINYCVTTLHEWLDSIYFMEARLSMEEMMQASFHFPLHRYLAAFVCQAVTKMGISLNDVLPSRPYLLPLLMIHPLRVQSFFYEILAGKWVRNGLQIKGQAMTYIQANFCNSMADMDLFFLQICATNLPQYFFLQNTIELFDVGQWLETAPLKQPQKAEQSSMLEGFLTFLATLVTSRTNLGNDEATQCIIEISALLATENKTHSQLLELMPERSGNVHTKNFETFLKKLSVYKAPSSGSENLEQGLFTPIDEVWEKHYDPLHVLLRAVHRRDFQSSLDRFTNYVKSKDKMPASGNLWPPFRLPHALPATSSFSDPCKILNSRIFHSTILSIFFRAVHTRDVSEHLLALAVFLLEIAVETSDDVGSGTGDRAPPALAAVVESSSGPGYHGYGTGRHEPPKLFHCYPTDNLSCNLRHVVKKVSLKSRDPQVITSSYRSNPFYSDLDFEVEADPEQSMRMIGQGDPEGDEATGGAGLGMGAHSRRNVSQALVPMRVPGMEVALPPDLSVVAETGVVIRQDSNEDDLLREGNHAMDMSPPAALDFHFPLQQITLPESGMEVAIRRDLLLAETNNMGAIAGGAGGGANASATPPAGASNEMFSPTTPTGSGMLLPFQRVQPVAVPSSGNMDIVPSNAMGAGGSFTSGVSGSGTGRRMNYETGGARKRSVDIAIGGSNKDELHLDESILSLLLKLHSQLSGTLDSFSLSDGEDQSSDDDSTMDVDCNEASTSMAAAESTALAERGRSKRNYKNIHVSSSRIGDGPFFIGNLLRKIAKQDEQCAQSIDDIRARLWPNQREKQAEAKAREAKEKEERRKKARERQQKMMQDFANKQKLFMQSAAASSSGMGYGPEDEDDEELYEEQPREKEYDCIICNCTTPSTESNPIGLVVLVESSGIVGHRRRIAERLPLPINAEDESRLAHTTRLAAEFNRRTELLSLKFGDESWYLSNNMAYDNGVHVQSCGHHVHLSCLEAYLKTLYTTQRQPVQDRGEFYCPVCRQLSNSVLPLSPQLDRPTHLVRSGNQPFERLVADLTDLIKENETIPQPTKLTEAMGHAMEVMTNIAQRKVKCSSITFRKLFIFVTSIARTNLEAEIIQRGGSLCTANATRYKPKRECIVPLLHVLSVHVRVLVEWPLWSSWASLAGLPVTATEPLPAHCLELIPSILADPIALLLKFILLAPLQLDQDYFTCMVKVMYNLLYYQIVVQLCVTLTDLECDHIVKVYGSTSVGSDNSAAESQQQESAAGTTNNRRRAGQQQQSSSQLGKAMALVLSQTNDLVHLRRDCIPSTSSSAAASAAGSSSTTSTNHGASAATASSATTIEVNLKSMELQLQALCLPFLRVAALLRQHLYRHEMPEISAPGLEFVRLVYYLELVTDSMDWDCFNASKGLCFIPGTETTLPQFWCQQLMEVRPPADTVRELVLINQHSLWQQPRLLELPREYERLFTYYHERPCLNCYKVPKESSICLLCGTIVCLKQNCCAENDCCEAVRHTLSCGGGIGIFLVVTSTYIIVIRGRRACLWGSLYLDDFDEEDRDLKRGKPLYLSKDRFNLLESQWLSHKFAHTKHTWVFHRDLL

What was measured:
[1] = target: T1, DIAP1, GFP-tagged (Drosophila) (UniProt Q24306); experiment: co-IP; Ubr3::V5 and DIAP1::GFP co-expressed in S2 cells with pri (pMT-pri induced by CuSO4 at 1 mM for 2 hours); immunoprecipitation with anti-GFP or anti-V5 antibodies, western blot
T1 sequence: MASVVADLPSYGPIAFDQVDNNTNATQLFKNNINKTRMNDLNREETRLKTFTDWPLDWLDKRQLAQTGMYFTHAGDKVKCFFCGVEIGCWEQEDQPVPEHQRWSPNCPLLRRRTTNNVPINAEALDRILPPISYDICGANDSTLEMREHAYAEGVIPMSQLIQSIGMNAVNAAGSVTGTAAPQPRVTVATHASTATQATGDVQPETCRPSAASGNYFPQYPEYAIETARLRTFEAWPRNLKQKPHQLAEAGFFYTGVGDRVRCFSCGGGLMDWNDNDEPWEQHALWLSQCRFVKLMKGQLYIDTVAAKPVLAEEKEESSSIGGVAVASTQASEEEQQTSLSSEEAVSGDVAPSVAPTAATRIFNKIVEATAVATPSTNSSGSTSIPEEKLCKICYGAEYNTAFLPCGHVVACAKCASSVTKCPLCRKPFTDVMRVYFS

[2] = target: T1, DIAP1, GFP-tagged (Drosophila); experiment: co-IP; Ubr3::V5 and DIAP1::GFP co-expressed in S2 cells without pri; immunoprecipitation with anti-GFP or anti-V5 antibodies, western blot

- binding [1]: binds
- binding [2]: binds weakly
Substance: E3 ubiquitin ligase Ubr3, V5-tagged (from UniProt Q9W3M3 1-2219) (enzyme)
